According to PubChem BioAssay AID445 (National Center for Advancing Translational Sciences (NCATS), 2006):
Some of the results follow. These are further read-outs of the screen, such as a control signal, another cell line or another target. No call is given for them. Most of these compounds were active or inconclusive in the main read-out, so they are no random draw. Words in brackets tell the shape of the fitted curve; partial curves, single points and poor fits give uncertain potencies.

assay: IkB Signaling; conditions: ABC-DLBCL IkBa-CBG/CBR dual luciferase ratio (green luciferase fused to IkBa over red control in OCI-Ly3 lymphoma cells), 4 h; measured here: control luc red channel unless noted
Summary of the method: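 Luminescence ratio of IκBα-fused green versus native red beetle luciferase in OCI-Ly3 cells, 4 h post-doxycycline with compound; red signal alone, scaled from basal (0%) to zero light (-100%), flagged nonspecific or cytotoxic effects.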

Question: For `Cc1ccc(-c2cn3c(n2)sc2cc(C(=O)NCCCN4CCCCCC4)ccc23)cc1`, which AC50 is on record?
Answer: 10 µM [falling, partial curve]

Question: Which AC50 does the source give for `Cc1cccc(N2CCN(C(=O)Cn3sc4nc(C)cc(C)c4c3=O)CC2C)c1` (stereo not given) here?
Answer: 39.8 µM [falling, single point]

Question: With `CC1=C(c2ccc(C)c(C)c2)S(=O)(=O)N=C1N1CCC(C(=O)NC(C)c2ccccc2)CC1` (stereo not given) as the compound, how does the AC50 read?
Answer: 39.8 µM [falling, single point]

Question: Which AC50 does the source give for `CC(CCc1ccccc1)NC(=O)Cn1c(=O)nc(-c2ccccc2)c2cc(Cl)ccc21` (stereo not given) here?
Answer: 12.6 µM [falling, partial curve]

Question: Which AC50 does the source give for `CCc1ccc2oc(C(=O)N(Cc3ccc(N(C)C)cc3)Cc3ccco3)c(C)c2c1` here?
Answer: 31.6 µM [falling, single point]

Question: Which AC50 does the source give for `O=C1c2ccccc2-c2onc3c(N4CCN(C5CCCCC5)CC4)cc(NCCO)c1c23` here?
Answer: 25.1 µM [falling, partial curve]

Question: Which AC50 does the source give for `COc1ccc(CNC(=O)Cc2c(C(=O)O)c(C)cn2C)cc1` here?
Answer: 0.0126 µM [rising, full curve]

Question: Which AC50 does the source give for `CSc1ccccc1N=Cc1nc(-c2ccccc2)oc1O` here?
Answer: 10 µM [falling, partial curve]

Question: Which AC50 does the source give for `O=C(COc1ccc(Cl)cc1Cl)NCc1ccco1` here?
Answer: 0.794 µM [rising, full curve]

Question: For `Cc1c(-c2ccccc2)c(=O)oc2ccc(OC(=O)N3CCOCC3)cc12`, which AC50 is on record?
Answer: 5.01 µM [falling, single point]

Question: For `Cc1cc(C)cc(OCCSc2nc3ccc(NC(=O)c4cccs4)cc3s2)c1`, which AC50 is on record?
Answer: 25.1 µM [falling, partial curve]

Question: Which AC50 does the source give for `CCOc1ccc(C(=O)Nc2c(C(=O)Nc3ccccc3OC)oc3ccccc23)cc1OCC` here?
Answer: 3.16 µM [rising, single point]

Question: With `O=C(Cn1cc(C(=O)C2CCCCC2)c2ccccc21)Nc1ccccc1Cl` as the compound, how does the AC50 read?
Answer: 12.6 µM [falling, partial curve]

Question: With `Nn1c(SCC(=O)NC2CCCCC2)nnc1-c1ccccc1` as the compound, how does the AC50 read?
Answer: 25.1 µM [falling, partial curve]

Question: For `COc1ccc(CCNC(=O)c2ccc3c(c2)sc2nc(-c4ccccc4)cn23)cc1OC`, which AC50 is on record?
Answer: 20 µM [falling, single point]

Question: Which AC50 does the source give for `CCOC(=O)c1cc(-c2ccc(OC)cc2)n(CCC(=O)NCCc2ccccc2)c1C` here?
Answer: 39.8 µM [falling, partial curve]

Question: For `COc1ccc(Cc2nnc3n2N=C(c2cc4ccccc4o2)CS3)cc1OC`, which AC50 is on record?
Answer: 20 µM [falling, partial curve]

Question: For `CCC(C)C(NC(=O)c1ccccc1NC(=O)c1ccc(OC)cc1)C(=O)NCc1ccco1` (stereo not given), which AC50 is on record?
Answer: 10 µM [falling, partial curve]

Question: Which AC50 does the source give for `Cc1cc(OCC(=O)NCCc2nc3ccccc3[nH]2)cc(C)c1Cl` here?
Answer: 25.1 µM [falling, partial curve]

Question: Which AC50 does the source give for `Cc1cccc(S(=O)(=O)Nc2nc3ccccc3nc2NCc2ccco2)c1` here?
Answer: 10 µM [falling, partial curve]

Question: Which AC50 does the source give for `Cc1ccc(CNC(=O)Cn2c(SCC(=O)Nc3ccc(F)cc3)nc3ccccc32)cc1` here?
Answer: 39.8 µM [falling, single point]

Question: For `COc1ccccc1Cc1nc(-c2ccc(Br)o2)no1`, which AC50 is on record?
Answer: 7.94 µM [falling, partial curve]

Question: Which AC50 does the source give for `Cc1ccc(CNC(=O)C(C)n2c(=O)cc(C(F)(F)F)c3c(C)nn(C)c32)cc1` (stereo not given) here?
Answer: 3.98 µM [falling, partial curve]

Question: With `Cc1cccc(C(=O)N2CCc3cc(CNC(=O)c4cc5ccccc5[nH]4)ccc32)c1` as the compound, how does the AC50 read?
Answer: 1.26 µM [rising, partial curve]

Question: Which AC50 does the source give for `Cc1ccc(S(=O)(=O)C(CNC(=O)c2c(F)cccc2F)c2ccco2)cc1` (stereo not given) here?
Answer: 1.58 µM [rising, partial curve]

Question: Which AC50 does the source give for `Cc1cc(C)c(S(=O)(=O)NCCS(=O)(=O)N2CCN(c3ccccc3)CC2)c(C)c1` here?
Answer: 6.31 µM [falling, partial curve]

Question: Which AC50 does the source give for `NC1=NC(c2cn(-c3ccccc3)nc2-c2cccs2)n2c(nc3ccccc32)N1` (stereo not given) here?
Answer: 15.8 µM [falling, partial curve]

Question: Which AC50 does the source give for `COC(=O)c1ccccc1NC(=O)Cn1cnc2sc(C)c(S(=O)(=O)N3CCC(C)CC3)c2c1=O` here?
Answer: 5.01 µM [falling, full curve]

Question: Which AC50 does the source give for `COc1ccc(NC(=O)/C=C\C(=O)N(c2ccc(C(C)C)cc2)C(C(=O)NCc2ccco2)c2ccc(C)cc2)cc1` (stereo not given) here?
Answer: 25.1 µM [falling, partial curve]

Question: With `CCOc1ccc(C2C(=O)N(C3CCCCCC3)CC(=O)N2Cc2ccccc2)cc1OC` (stereo not given) as the compound, how does the AC50 read?
Answer: 3.98 µM [rising, single point]

Question: With `CCOC(=O)c1cccc(NC(=O)c2ncoc2-c2ccco2)c1` as the compound, how does the AC50 read?
Answer: 2 µM [rising, partial curve, poor fit]

Question: With `CN1CCN(CCC=C2c3ccccc3Sc3ccc(S(=O)(=O)N(C)C)cc32)CC1` as the compound, how does the AC50 read?
Answer: 15.8 µM [falling, partial curve] [measured here: IkB-luc green channel]

Question: Which AC50 does the source give for `O=C(N1CCN(c2ccccc2F)CC1)C12CC3CC(CC(C3)C1)C2` here?
Answer: 20 µM [falling, partial curve]

Question: Which AC50 does the source give for `CCc1ccc(CNC(=O)CCCn2ccc3cc(S(=O)(=O)N4CCCC4)ccc32)cc1` here?
Answer: 12.6 µM [falling, partial curve]

Question: Which AC50 does the source give for `Cn1c(=O)c(C(=O)Nc2cnccn2)c(O)c2ccccc21` here?
Answer: 39.8 µM [falling, single point]

Question: With `CCOc1ccc(CCNC(=O)c2cc3c(-c4ccccc4F)nn(C)c3s2)cc1` as the compound, how does the AC50 read?
Answer: 10 µM [falling, partial curve]

Question: With `Cc1ccc(S(=O)(=O)c2nc(-c3ccc(F)cc3)oc2SCC(=O)NC2CCCCC2)cc1` as the compound, how does the AC50 read?
Answer: 1.26 µM [falling, partial curve]

Question: Which AC50 does the source give for `CCS(=O)(=O)N1CCc2cc(C(=O)NCc3ccccc3OC)ccc21` here?
Answer: 31.6 µM [falling, single point]

Question: Which AC50 does the source give for `COc1cccc(NC(=O)C2CCC(CNS(=O)(=O)c3ccc4c(c3)CCCC(=O)N4)CC2)c1` (stereo not given) here?
Answer: 5.01 µM [falling, partial curve]

Question: Which AC50 does the source give for `COc1ccc(NC(=O)CN2C(=O)COc3ccc(S(=O)(=O)N4CCOCC4)cc32)cc1` here?
Answer: 2.51 µM [rising, partial curve]

Question: Which AC50 does the source give for `COc1cccc(NC(=O)C2CCN(c3ccc(Sc4ccc(C)cc4)nn3)CC2)c1` here?
Answer: 1 µM [falling, full curve]

Question: With `Cc1nnc(SCC(=O)n2c3c(c4ccccc42)CCCC3)s1` as the compound, how does the AC50 read?
Answer: 0.0398 µM [falling, full curve]

Question: With `CCc1ccc2oc(-c3ccc(C)c(NC(=O)/C=C/c4ccco4)c3)nc2c1` as the compound, how does the AC50 read?
Answer: 0.251 µM [falling, full curve]

Question: Which AC50 does the source give for `Cc1sc2ncn(CC(=O)N3CCN(c4ccccc4F)CC3)c(=O)c2c1S(=O)(=O)N1CCC(C)CC1` here?
Answer: 12.6 µM [falling, partial curve]

Question: With `Cc1ccc2nc(/C(C#N)=C/c3ccccc3F)[nH]c2c1` as the compound, how does the AC50 read?
Answer: 15.8 µM [falling, partial curve]
